The values below come from patent US20040014147A1 (RIGEL PHARMACEUTICALS, published 2004).

Protein sequences, listed by entry. Tags and fused reporters are not part of them. Lines headed by an entry give the natural chain unless they say otherwise; changes in a name come on top.
UniProt P55263: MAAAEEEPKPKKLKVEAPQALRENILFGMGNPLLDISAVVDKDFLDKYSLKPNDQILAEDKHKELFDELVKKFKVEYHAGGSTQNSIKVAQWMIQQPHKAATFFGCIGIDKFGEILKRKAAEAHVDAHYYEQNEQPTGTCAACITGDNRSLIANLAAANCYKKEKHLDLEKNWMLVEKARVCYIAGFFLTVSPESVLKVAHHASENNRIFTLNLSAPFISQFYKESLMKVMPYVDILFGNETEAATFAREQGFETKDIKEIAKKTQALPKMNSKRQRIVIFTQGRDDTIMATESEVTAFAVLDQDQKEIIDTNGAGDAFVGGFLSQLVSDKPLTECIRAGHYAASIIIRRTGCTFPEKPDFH

Results are given in words; binding and its absence hold for the method and conditions named. Some entries that bind do so weakly or less than the wild type.

Assay [1] addresses T1, human adenosine kinase (human, UniProt P55263 22-362). The assay is described as follows: yeast two-hybrid.
The target of assay [2] is T1, human adenosine kinase. The assay is described as follows: yeast two-hybrid interaction profile compared with functional profile.
Assay [3] deals with T1, human adenosine kinase. Description: yeast two-hybrid, beta-galactosidase signal; category R (reduction of interaction against wild type).

For DTMQVQCGVCRSGYVVAFWDVGP (peptide, not shown: large carriers) [peptide AR02E8 wt], the binding result with human adenosine kinase [1] and in the assay with human adenosine kinase [2] was “binds” throughout.

DTMQVQCGVCAGGYVVAFWDVGP (peptide, not shown: large carriers) [peptide AR02E8RS]: the binding result in the assay with human adenosine kinase [1] and in the assay with human adenosine kinase [3] was “binds” each time.

With DTMQVQCGAGRSGYVVAFWDVGP (peptide, not shown: large carriers) [peptide AR02E8VC], the binding result in the assay with human adenosine kinase [1] and with human adenosine kinase [3] was “binds” in each case.
